Drawing on PMC9980308, this text covers binding for 1 substance.

Amino acid sequences for entries named in this document (tags omitted).
UniProt P11532: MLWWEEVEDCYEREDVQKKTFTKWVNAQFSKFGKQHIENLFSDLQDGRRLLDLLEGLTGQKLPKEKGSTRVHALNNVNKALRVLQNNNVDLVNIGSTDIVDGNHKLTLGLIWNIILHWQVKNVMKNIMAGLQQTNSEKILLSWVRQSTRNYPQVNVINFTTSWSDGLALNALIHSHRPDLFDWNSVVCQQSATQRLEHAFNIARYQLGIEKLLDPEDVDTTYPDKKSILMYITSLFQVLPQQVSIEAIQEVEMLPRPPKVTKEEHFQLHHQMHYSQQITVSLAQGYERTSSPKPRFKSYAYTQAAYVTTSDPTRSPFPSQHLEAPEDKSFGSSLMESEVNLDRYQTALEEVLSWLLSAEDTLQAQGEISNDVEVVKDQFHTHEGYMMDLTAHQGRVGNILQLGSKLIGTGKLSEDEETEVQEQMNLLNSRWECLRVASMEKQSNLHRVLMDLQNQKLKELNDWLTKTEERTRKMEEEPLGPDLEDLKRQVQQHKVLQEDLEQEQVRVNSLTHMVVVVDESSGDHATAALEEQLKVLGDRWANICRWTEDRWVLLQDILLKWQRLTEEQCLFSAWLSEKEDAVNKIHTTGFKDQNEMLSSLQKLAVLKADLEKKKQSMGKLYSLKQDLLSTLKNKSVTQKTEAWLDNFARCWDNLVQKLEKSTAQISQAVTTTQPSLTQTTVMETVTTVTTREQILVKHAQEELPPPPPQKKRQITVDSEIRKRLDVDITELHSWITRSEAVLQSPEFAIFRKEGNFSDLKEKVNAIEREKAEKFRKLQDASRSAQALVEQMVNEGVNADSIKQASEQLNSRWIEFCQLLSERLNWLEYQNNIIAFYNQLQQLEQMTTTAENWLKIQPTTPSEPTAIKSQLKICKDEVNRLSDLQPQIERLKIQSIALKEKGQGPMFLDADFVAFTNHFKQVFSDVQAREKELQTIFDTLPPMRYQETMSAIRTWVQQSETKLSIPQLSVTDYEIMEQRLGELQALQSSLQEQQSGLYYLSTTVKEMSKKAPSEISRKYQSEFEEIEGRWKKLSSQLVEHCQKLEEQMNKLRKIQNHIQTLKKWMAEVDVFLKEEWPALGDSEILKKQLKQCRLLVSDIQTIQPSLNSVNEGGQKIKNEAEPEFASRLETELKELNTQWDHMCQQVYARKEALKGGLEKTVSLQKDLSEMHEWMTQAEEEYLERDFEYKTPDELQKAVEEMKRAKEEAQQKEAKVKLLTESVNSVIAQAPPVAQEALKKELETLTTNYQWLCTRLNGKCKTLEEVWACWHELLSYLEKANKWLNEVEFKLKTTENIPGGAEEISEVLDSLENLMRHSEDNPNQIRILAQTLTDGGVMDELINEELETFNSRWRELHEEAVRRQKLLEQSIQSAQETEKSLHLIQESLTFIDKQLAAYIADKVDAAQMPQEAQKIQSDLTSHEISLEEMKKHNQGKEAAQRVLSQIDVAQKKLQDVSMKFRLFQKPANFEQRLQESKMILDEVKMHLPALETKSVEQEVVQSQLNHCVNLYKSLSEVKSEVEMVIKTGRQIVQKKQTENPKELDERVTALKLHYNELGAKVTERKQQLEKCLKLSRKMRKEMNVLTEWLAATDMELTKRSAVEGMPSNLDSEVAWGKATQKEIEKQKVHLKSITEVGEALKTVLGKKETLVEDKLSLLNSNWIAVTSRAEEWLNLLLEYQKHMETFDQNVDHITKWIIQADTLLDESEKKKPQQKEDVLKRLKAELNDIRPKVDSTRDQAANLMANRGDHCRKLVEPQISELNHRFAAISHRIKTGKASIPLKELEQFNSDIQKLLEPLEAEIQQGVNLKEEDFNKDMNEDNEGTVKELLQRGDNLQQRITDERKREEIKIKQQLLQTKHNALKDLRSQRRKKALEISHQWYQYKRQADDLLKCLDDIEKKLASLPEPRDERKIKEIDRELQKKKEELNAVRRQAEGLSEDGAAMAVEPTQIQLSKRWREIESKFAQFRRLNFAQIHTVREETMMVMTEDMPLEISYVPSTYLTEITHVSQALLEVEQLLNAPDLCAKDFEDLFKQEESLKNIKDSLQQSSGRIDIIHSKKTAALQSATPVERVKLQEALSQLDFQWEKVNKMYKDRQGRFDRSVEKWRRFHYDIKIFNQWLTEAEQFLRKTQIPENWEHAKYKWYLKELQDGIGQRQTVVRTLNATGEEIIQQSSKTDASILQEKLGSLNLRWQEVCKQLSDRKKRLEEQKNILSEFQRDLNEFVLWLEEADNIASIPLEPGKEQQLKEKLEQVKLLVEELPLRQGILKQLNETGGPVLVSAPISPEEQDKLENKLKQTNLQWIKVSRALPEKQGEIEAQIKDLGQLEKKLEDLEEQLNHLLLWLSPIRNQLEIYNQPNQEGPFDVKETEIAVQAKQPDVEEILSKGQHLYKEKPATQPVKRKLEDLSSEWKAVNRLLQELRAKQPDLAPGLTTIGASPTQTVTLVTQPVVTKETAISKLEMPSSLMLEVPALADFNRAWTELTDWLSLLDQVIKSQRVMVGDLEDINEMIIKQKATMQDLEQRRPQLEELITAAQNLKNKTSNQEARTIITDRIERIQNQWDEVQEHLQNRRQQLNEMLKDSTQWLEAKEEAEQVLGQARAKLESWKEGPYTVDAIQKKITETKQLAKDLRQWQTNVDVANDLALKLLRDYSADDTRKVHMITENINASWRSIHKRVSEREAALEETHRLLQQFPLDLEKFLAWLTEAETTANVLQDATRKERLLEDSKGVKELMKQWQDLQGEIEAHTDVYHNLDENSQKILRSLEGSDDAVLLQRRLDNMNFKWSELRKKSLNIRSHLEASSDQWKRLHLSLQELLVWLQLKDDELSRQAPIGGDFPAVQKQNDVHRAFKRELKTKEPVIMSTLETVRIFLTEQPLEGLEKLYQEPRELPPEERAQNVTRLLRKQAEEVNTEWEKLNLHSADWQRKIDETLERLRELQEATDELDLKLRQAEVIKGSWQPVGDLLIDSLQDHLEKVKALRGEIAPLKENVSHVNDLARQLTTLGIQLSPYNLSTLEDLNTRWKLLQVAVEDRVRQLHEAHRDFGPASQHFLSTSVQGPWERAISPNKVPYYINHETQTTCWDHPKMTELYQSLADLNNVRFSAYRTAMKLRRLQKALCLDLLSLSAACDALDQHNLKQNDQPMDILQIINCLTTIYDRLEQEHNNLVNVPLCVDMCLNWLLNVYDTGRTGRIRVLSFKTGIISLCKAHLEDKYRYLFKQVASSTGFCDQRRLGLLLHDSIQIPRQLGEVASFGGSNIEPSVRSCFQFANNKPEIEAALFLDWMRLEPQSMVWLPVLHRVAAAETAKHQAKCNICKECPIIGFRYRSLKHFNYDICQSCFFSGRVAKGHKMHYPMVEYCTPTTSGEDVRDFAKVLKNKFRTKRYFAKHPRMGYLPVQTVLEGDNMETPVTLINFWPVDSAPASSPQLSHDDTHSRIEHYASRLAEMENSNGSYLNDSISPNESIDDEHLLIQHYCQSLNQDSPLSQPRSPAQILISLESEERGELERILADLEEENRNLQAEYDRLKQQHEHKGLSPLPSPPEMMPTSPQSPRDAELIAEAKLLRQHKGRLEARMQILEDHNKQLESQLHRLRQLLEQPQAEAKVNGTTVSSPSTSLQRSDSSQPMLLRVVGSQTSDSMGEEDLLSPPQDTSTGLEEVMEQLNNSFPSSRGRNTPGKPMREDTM

No constants are given. Whether binding was seen depends on the method and setting. In cells and extracts the contact can be indirect. Some binding calls cover weakened binding; strength is not graded here.

In this assay the target is T1, Rab GTPase 3C (UniProt Q96E17).
T1 sequence: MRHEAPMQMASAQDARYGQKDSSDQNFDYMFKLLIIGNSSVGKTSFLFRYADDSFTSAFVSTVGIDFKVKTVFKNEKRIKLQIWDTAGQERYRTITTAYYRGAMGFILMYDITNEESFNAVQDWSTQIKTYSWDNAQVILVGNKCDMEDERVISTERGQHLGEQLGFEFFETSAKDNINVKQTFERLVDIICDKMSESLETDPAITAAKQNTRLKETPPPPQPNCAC
Put plainly: co-IP; whole-cell lysates (2 mg) of SW480, SW48 and DLD-1 RAB3C-overexpression models; antibody against RAB3C or dystrophin with protein A/G magnetic beads, overnight in IP buffer; two-way (both directions).

For the substance dystrophin (from UniProt P11532 1-3685), the binding result is reported as “binds”.
